Test results published in publication PMC4588886, “A link between magnesium-chelatase H subunit and sucrose nonfermenting 1 (SNF1)-related protein kinase SnRK2.6/OST1 in Arabidopsis guard cell signalling in response to abscisic acid” (Journal of Experimental Botany, 2015).
Results are given in words; binding and its absence hold for the method and conditions named. Binding seen in cells or lysates may run through a third protein. Some entries that bind do so weakly or less than the wild type. Where a sequence is shown, tags or fusion partners need not be part of it.

Target: T1, Myc-tagged OST1 protein (transgenic Arabidopsis) (Arabidopsis thaliana) (UniProt Q940H6)
T1 sequence: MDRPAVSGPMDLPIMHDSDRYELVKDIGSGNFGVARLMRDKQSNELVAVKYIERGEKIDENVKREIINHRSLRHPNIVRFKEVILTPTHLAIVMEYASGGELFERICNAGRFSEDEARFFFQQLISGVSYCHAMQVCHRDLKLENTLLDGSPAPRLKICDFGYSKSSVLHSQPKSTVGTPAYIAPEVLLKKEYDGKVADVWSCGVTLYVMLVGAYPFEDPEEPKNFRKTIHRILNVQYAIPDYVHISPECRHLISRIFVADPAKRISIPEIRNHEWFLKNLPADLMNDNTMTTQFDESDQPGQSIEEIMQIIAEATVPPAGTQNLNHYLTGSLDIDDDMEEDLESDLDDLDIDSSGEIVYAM
Test: co-IP; total protein of Myc-tagged OST1 over-expression Arabidopsis lines; immunoprecipitation with anti-Myc-tag antibody, blot with anti-ABAR serum; pre-immune serum as control

B1: ABAR protein (endogenous, Arabidopsis total protein) (protein, UniProt Q9FNB0 50-1381)
chain: AVSGNGLFTQTNPEVRRIVPIKRDNVPTVKIVYVVLEAQYQSSLSEAVQSLNKTSRFASYEVVGYLVEELRDKNTYNNFCEDLKDANIFIGSLIFVEELAIKVKDAVEKERDRMDAVLVFPSMPEVMRLNKLGSFSMSQLGQSKSPFFQLFKRKKQGSAGFADSMLKLVRTLPKVLKYLPSDKAQDARLYILSLQFWLGGSPDNLQNFVKMISGSYVPALKGVKIEYSDPVLFLDTGIWHPLAPTMYDDVKEYWNWYDTRRDTNDSLKRKDATVVGLVLQRSHIVTGDDSHYVAVIMELEARGAKVVPIFAGGLDFSGPVEKYFVDPVSKQPIVNSAVSLTGFALVGGPARQDHPRAIEALKKLDVPYLVAVPLVFQTTEEWLNSTLGLHPIQVALQVALPELDGAMEPIVFAGRDPRTGKSHALHKRVEQLCIRAIRWGELKRKTKAEKKLAITVFSFPPDKGNVGTAAYLNVFASIFSVLRDLKRDGYNVEGLPENAETLIEEIIHDKEAQFSSPNLNVAYKMGVREYQDLTPYANALEENWGKPPGNLNSDGENLLVYGKAYGNVFIGVQPTFGYEGDPMRLLFSKSASPHHGFAAYYSYVEKIFKADAVLHFGTHGSLEFMPGKQVGMSDACFPDSLIGNIPNVYYYAANNPSEATIAKRRSYANTISYLTPPAENAGLYKGLKQLSELISSYQSLKDTGRGPQIVSSIISTAKQCNLDKDVDLPDEGLELSPKDRDSVVGKVYSKIMEIESRLLPCGLHVIGEPPSAMEAVATLVNIAALDRPEDEISALPSILAECVGREIEDVYRGSDKGILSDVELLKEITDASRGAVSAFVEKTTNSKGQVVDVSDKLTSLLGFGINEPWVEYLSNTKFYRANRDKLRTVFGFLGECLKLVVMDNELGSLMQALEGKYVEPGPGGDPIRNPKVLPTGKNIHALDPQAIPTTAAMASAKIVVERLVERQKLENEGKYPETIALVLWGTDNIKTYGESLGQVLWMIGVRPIADTFGRVNRVEPVSLEELGRPRIDVVVNCSGVFRDLFINQMNLLDRAIKMVAELDEPVEQNFVRKHALEQAEALGIDIREAATRVFSNASGSYSANISLAVENSSWNDEKQLQDMYLSRKSFAFDSDAPGAGMAEKKQVFEMALSTAEVTFQNLDSSEISLTDVSHYFDSDPTNLVQSLRKDKKKPSSYIADTTTANAQVRTLSETVRLDARTKLLNPKWYEGMMSSGYEGVREIEKRLSNTVGWSATSGQVDNWVYEEANSTFIQDEEMLNRLMNTNPNSFRKMLQTFLEANGRGYWDTSAENIEKLKELYSQVEDKIEGIDR
For B1, the binding was “binds”.
